Paper PMC4764975, “Probing the enzyme kinetics, allosteric modulation and activation of α1- and α2-subunit-containing AMP-activated protein kinase (AMPK) heterotrimeric complexes by pharmacological and physiological activators” (Biochemical Journal, 2016)
These are yes or no findings as the source states them, for the method shown. Some binding calls cover weakened binding; strength is not graded here.

By UniProt entry, the sequences of proteins in these tests, tags left out.
UniProt P54646: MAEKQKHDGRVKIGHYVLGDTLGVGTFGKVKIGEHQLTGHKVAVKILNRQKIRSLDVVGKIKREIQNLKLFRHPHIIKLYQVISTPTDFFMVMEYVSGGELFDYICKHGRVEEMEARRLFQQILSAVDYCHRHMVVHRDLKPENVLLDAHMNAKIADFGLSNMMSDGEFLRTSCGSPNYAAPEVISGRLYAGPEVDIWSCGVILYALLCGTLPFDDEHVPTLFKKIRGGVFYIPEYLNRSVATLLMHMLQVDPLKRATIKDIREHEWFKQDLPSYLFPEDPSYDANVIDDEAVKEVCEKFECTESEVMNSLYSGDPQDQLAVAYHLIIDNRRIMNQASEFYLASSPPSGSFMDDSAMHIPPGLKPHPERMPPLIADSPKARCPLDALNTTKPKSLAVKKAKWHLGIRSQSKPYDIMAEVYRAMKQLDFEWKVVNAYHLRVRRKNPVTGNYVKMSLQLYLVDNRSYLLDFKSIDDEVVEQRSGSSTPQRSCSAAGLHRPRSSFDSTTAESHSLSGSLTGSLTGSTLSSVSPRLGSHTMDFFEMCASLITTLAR
UniProt Q9UGI9: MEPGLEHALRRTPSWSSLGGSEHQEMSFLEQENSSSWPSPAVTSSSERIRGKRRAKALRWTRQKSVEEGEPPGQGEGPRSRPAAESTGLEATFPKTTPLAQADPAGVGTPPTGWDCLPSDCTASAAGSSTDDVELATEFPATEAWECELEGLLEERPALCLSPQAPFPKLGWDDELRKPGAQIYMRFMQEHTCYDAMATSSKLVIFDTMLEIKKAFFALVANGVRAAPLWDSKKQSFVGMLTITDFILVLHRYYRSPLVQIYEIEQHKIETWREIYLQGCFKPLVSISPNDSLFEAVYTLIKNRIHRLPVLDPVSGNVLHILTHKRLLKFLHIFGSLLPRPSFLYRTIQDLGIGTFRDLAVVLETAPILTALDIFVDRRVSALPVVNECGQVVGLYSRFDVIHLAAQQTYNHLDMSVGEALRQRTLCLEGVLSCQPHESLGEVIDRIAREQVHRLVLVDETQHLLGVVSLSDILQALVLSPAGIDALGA

Biological target: AMPK α2-subunit (human) (UniProt P54646)
Test: co-purification (Ni2+-affinity and size exclusion chromatography); α, β and γ co-expressed in E. coli from a tricistronic vector; captured via the His6 tag on the α-subunit only (HisTrap HP), re-purified after CaMKKβ activation, Superdex 200; subunits detected by Coomassie SDS/PAGE and MS

AMPK γ3-subunit (from UniProt Q9UGI9 1-489)
binding: binds
